Values quoted from earlier work as cited in patent US10407430B2, “Janus kinase 1 selective inhibitor and pharmaceutical use thereof” (YANG JI CHEMICAL CO., LTD., priority 2015, dated 2019).
Where a name gives a salt, the structure may show the parent alone.

Conditions: oral administration, 10 mg/kg, comparative drug (EMA); cited from earlier work

CC1CCN(C(=O)CC#N)CC1N(C)c1ncnc2[nH]ccc12 (stereo not shown) [tofacitinib citrate, 3-{4-methyl-3-[methyl-(7H-pyrrolo[2,3-d]pyrimidine-4-yl)-amino]-piperidine-1-yl}-3-oxo-propionitrile]
Tmax: 18.6 min
